Test results: PubChem BioAssay AID1508600 (Functional Genomics Laboratory (NCATS/FGL), 2020)
Among all 53,000 sequences or so, about 3,700 (7%) were called active.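 How the source made its calls: active means gene knockdowns whose robust z-score for IL-1 alpha signal is at least 2 or at most -2, so actives lie on both sides; inactive means the rest.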 The list shows a part of the results.

Assay: Components of the Cytosolic LPS Sensing Pathway: Gene Identification via Genome-wide siRNA Screen;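 further: robust z of the log signal after scaling to non-targeting control siRNA wells of the plate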
Details: RAW264.7 macrophages, IL-1a HTRF, actives lie on both sides, screened at 100 nM (by protocol), cells primed 5 h with Pam3CSK4 first
Method in brief: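 Three distinct siRNAs per gene were tested singly at 100 nM in RAW264.7 macrophages. Following Pam3CSK4 priming and 24 hour LipidA transfection, IL-1a secretion was read by HTRF.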

Sequence | z-score
GGACUUGCCACCCAGGAAATT against Apba3 | inactive: -0.175
GGAGUGCUGUAUUUUUGUATT against Gpr68 | inactive: 0.745
GGUCGUUGCCAACAUUGCUTT against Slc28a1 | inactive: -1.1
GGGUGAUGUGUGACAAUGUTT against Wnt2 | inactive: 0.0823
GCCCUAAUUGACUAUGAGATT against Snx5 | inactive: 0.147
CCCUAAAUCCAAAAAGGGCTT against Pik3r5 | inactive: -0.678
GCUGGAUGGAGGCAAAGCATT against C1ql1 | inactive: -1.38
GGCUCUGACAGACAAUGGATT against Dpt | inactive: -0.565
GGGACUGUUUCUGUUAAUUTT against Esyt3 | inactive: 0.214
GGUCAUUCAAGAGAUACUATT against Dennd10 | inactive: -0.65
CCAUUACCUUACCCUCCGATT against Scnm1 | inactive: 0.607
GGUUAAUCAUCUAGAUUACTT against Dnaaf6b | inactive: 1.16
GUCAAAAAGCAAGAAGCCUTT against Etd | inactive: -1.24
GCCCAGACUACCAUGCUUATT against Gm5535 | inactive: -0.873
CGGAACCUUACAUUAAAUGTT against Tada2a | inactive: 0.11
GGACCACUCUGAAUAAGACTT against Ttc12 | inactive: -1.3
GGAAGGUGGACAGAUUGCATT against Pfkfb3 | inactive: -0.981
GGAAGAGAAAGGCAAAAAGTT against Nckap5 | inactive: 0.616
GCAUUUUUGAACAAACUUGTT against Ankar | inactive: -0.406
GGAGCGAGGUACAACUGAATT against Mb21d2 | inactive: 0.336
GGAGCUCAACAAGUUGCUUTT against H2ac1 | inactive: 0.465
CCAUCAUGGCCUUAUCCGUTT against Rfx1 | inactive: -0.635

Sequence | z-score
GGAAAACCUAGAGAAGCUGTT against Mast1 | inactive: -0.56
GGACUUCAGCCUCAUCCUGTT against Phb2 | inactive: -0.499
GGCUUGAGUCCUGAGACCATT against Ifna11 | inactive: 0.686
GGUAAAUGAGUAGCUUAGUTT against Baiap2l1 | inactive: -0.566
GGUAAAGUUCAAGUUAAGATT against Atp9b | inactive: 0.407
GGCUAGAGACUUGGUUUUUTT against Nrros | inactive: 1.96
GGAGUCUUGUAAUGAGCUUTT against Zfp54 | inactive: 0.898
GCAGCAUAUAGAAAACCUATT against Nr1h5 | inactive: 0.0263
GGAUGUAUGAUGCAGUUAUTT against Olfr1211 | inactive: 1.89
CCCAGGUAGAGACAUUGCUTT against 6330444E15Rik | inactive: -1.89
GGGCUCUGCUAGUUCAAUATT against Lpp | inactive: 0.936
GGUUCUUUGUUACUCUAAGTT against Gabrb3 | inactive: -0.437
GGAUCUUUUCAGGUUCUAATT against Olfr659 | inactive: 0.377
GCAGAGAGAGCGUGAAUCCTT against AB124611 | inactive: 0.598
GCUGAGAGUGAACCGAUGUTT against Dyrk4 | inactive: 1.54
GCUAAAAGGCUACGGGAGUTT against Bhlhe23 | inactive: -0.266
GCUGGACAUCAAUACGGUGTT against Oplah | inactive: 0.206
GCCUUCUGAUAAUAUUAUGTT against Vps13b | inactive: 0.0712
GGGCAUUGUUGUUUCUAUUTT against Lhfp | inactive: -0.0841
GGAUGCUCAACACUACGCUTT against Avp | inactive: 0.341
GGCAAACAAAACAAACUGATT against Tram1l1 | inactive: -0.967
GGAGCUCCUCUGAAUGCUCTT against Arhgef15 | inactive: -1.66

Sequence | z-score
GCUAUGACUCCAACAUGCGTT against Jaml | inactive: 0.0115
GGAGUGUUUAAAUAUAGCCTT against Mtmr9 | inactive: 0.529
CCGAAAUGGACAUAUCAUUTT against Trim3 | inactive: 0.102
AACAUUGUAUAUCUCUCAUTT against Saa1 | inactive: 1.14
GGAACAAACCUUCAUUUAGTT against Osbp2 | inactive: 0.28
GCCCUCAAUAACUAUGUACTT against Il2 | inactive: -0.389
GUGUCUCUGUACUUAUUAUTT against Olfr483 | inactive: 0.69
GGAUGAAAAUCAAUUCUCCTT against Nusap1 | inactive: 0.693
GGACCUAAGAAACUGCUUATT against Ccr7 | inactive: 0.716
GGGAUUGUAUGAGUGCACATT against Coa4 | inactive: 0.657
GGCAGAGCCUGGAUUUAUCTT against 2610524H06Rik | inactive: -0.582
GGCUGAGCACAAUAAUCCCTT against Ndufs7 | inactive: -0.657
GGUCAACUCCUUUAUGAGCTT against Apoa4 | inactive: -0.238
GGAACCACAUGGACACACUTT against Tmem251 | inactive: -0.146
GGUGGUUUAAGAAAUCAAATT against Dolpp1 | inactive: 0.34
CCGAGCAAAAUCUCAAAUUTT against Mdh1 | inactive: 1.89
CGUGAAAUAAACAGUCUGATT against Ranbp2 | inactive: -0.166
GGGAAGAAGAAGAAUUUUGTT against Ubap2 | inactive: -0.389
GGUAUGUCCUCUGGUCAAUTT against Bpifa1 | inactive: 0.282
GCGGUAAUAUCUACGAAGATT against Ina | inactive: 0.886
GGAGUUCCAGAAGCUUCUATT against Vwa3b | inactive: -1.72
GCCCUCUUAUCUGAAUAAUTT against Stk17b | active: 2.19

Copied from the list.
z-score, GCGGUAAUAUCUACGAAGATT against Ina is entered as inactive: 0.886
z-score, GGAGUUCCAGAAGCUUCUATT against Vwa3b is entered as inactive: -1.72

(continued)

Sequence | z-score
GGAAGAUCUACAUCGUGGGTT against Klhl26 | inactive: 0.341
GCGACUAUUUUGAAUACCATT against Tlk1 | inactive: -0.449
GGCUUAAAAUGUUAGUGAATT against Tspan11 | inactive: 1.5
GCUAGCAUAACUUCAGCUATT against Trim45 | inactive: 0.502
GGUGUCAUCAAGUUGAAAATT against Mcrs1 | inactive: -1.12
GGGCCAACUCAAAACAAAATT against Wdr37 | inactive: -0.74
CGCGUCUCUACAAAAACAUTT against Impa2 | inactive: 0.408
GGAGAUCACAGAAAAAACCTT against Colec12 | inactive: 0.28
GCUCCGAAAGACUAGAUACTT against Spag8 | inactive: -0.339
GCCCUAUCAACACUUGGGATT against Prrxl1 | inactive: -0.224
GCACACCAACAAUGCUUUCTT against Tmem86a | inactive: -0.313
GGAGAUGGAUUUUUCUACUTT against F830045P16Rik | inactive: 0.291
GGAAGAGUGAUGGUUUUAATT against Tollip | inactive: 1.2
CGCACAUCCUGAAUAUACATT against Drd2 | inactive: -0.483
CGCAAUGGAAGUCUAUCUUTT against Zdhhc5 | inactive: 0.699
GGCUGUGUUGAGUUUUCACTT against Abcg3 | inactive: 1.23
GCAGCAUCGCUAUGUCCUGTT against Ccl26 | inactive: 0.182
GGGCUUUGUUUCCAAGUUGTT against Muc15 | inactive: -0.285
GGUAAGUUUGGGAACAUUGTT against Septin12 | inactive: 0.528
GGACAUCAAUUCAACAGUUTT against Lifr | inactive: -0.361
CCAUUCCCGCAUCCAUGUGTT against Zfp672 | active: -2.23
GGAGUCAAGUCCACAUACATT against Usp47 | inactive: -0.027

Part of the list above in another layout:
Sequence	z-score
CGCACAUCCUGAAUAUACATT against Drd2	inactive: -0.483
CGCAAUGGAAGUCUAUCUUTT against Zdhhc5	inactive: 0.699
GGCUGUGUUGAGUUUUCACTT against Abcg3	inactive: 1.23
GCAGCAUCGCUAUGUCCUGTT against Ccl26	inactive: 0.182
GGGCUUUGUUUCCAAGUUGTT against Muc15	inactive: -0.285

Remaining list, next part.

Sequence | z-score
GAUGCUGCCAACAUGACACTT against Clps | inactive: 0.451
GGAAGAAAAAGUCCUGUCCTT against Aoc1 | inactive: -0.984
GCUCUGUGUGGUCUCCUAATT against Nrm | inactive: -1.9
GUCUCAAGUGGACUGUGAGTT against Klk1b4 | active: -2.83
GGAAAUUUCAGUCGAACAGTT against Arhgap31 | inactive: 0.333
GCUGGAUCUCAAGAAAAAUTT against Pou4f2 | inactive: 0.0727
GGUAUUUAAACUCUUGGGATT against Mpdu1 | inactive: -0.636
GGAGAAAGCCAAAUUUAACTT against Slc17a6 | inactive: 0.103
GACUCAUUCUGCAAUGAAGTT against Ifna5 | inactive: 0.105
GGACUUCUACAUUGAACUUTT against Megf11 | inactive: 1.03
CCCACUGGAAGAUUCAAACTT against Zfp623 | inactive: 0.441
GGAGUUCAUUAUCUUGGCUTT against Rsad1 | inactive: 0.0698
GGUACUGCCAUGUAGGAAATT against A330008L17Rik | inactive: 0.766
CCUUUGGAAUUUCUAAUACTT against Stil | inactive: -0.286
GGAGGUCCAGAAGAAUUAUTT against Pam16 | inactive: 0.957
GGCUCCAGUCCGUUUUGAATT against Nrarp | inactive: 0.0759
GCUAUUUGUCCACAAGUUCTT against Rab2a | inactive: 1.05
GCUAAUUCCCUGGCCUCAATT against Tro | inactive: -0.627
GGUGAAGUUGCCAAGAAAGTT against Reg3g | inactive: 0.223
